# Laboratory results published in paper PMC6925144, “A prospective compound screening contest identified broader inhibitors for Sirtuin 1” (Scientific Reports, 2019).
# The chains behind the UniProt entries cited, without tags or fusion partners. Residues count along the entry.
# UniProt Q96EB6, 2-747 limits assumed: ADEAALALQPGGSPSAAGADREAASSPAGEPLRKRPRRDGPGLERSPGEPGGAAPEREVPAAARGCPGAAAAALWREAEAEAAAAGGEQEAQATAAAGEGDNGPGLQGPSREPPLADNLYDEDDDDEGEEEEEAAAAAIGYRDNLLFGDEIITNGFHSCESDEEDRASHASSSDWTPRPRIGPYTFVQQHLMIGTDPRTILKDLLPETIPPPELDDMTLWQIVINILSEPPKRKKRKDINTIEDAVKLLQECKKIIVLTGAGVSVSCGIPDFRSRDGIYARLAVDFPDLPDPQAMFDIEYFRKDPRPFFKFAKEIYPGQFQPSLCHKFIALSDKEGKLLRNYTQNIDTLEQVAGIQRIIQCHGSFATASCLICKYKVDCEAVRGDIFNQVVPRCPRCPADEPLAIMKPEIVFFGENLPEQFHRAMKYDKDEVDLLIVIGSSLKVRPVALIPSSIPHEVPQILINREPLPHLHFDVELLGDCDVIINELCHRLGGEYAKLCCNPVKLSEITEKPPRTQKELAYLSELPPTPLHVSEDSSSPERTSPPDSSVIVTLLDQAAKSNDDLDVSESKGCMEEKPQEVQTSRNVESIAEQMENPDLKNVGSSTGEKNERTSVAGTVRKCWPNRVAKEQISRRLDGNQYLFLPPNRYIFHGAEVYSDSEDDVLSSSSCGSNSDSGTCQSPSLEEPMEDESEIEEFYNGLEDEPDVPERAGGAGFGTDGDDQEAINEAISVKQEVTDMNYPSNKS
# Whole data set: some 3,200 compounds, median “TSA(with NAD+) / Primary screening (TSA) / delta Tm (K)” near -0.04, cut for the highest 2% near 0.37. This is one part of the list.
# Target: NAD-dependent deacetylase Sirtuin 1 (human, UniProt Q96EB6)
# Experiment: primary screen, delta tm
# Parameters: single well (n = 1, as 'the same TSA')
# Settings: 10 µM
row,Compound,TSA(with NAD+) / Primary screening (TSA) / delta Tm (K)
1,Cc1cc(NCc2cccnc2N2CCC(C(N)=O)CC2)nc(C)n1,0.01
2,CNC(C)CN (stereo not shown),-0.01
3,O=C(NCC1CCCN(Cc2cccs2)C1)c1ccc2n[n-]nc2c1 (stereo not shown),0.12
4,COc1ccc(NS(=O)(=O)c2cccc(C(=O)NNC(=O)C34CC5CC(CC(C5)C3)C4)c2)cc1,-0.01
5,Cc1nn2cccnc2c1C(=O)NCc1ccc(-c2nnn[nH]2)cc1,-0.06
6,CCC(=O)CN,-0.06
7,COc1ccc(C(=O)C2=C(O)C(=O)N(CCCN3CCOCC3)C2c2ccc(C)cc2)cc1C (stereo not shown),-0.11
8,CC(C)CCCN,-0.29
9,Cc1cc(C2CCN(c3ncnc4sc5c(c34)CCC5)CC2)[nH]n1,-0.24
10,C=CCN(C)C(=O)NC(C)c1ccc(NC(=O)c2ccncc2)cc1 (stereo not shown),-0.15
11,NC(=O)C1CCN(C(=O)c2ccc3[nH]c4c(c3c2)CCCC4)CC1,0.01
12,CC(=O)Nc1ccc(NC(=O)c2cccc(S(=O)(=O)N(C)c3ccc(C)cc3)c2)cc1,-0.04
13,O=C(COc1ccccc1C(=O)Nc1ccc(S(=O)(=O)Nc2nccs2)cc1)Nc1cccc(C(F)(F)F)c1,0.82
14,COc1ccc(N(C)S(=O)(=O)c2cccc(C(=O)Nc3cccc(C#N)c3)c2)cc1,0.35
15,O=C(Nc1cc(S(=O)(=O)N2CCOCC2)ccc1Oc1ccccc1)C1=COCCO1,-0.03
16,NC(=O)COC(=O)C1CCCN(C2=NS(=O)(=O)c3ccccc32)C1 (stereo not shown),-0.09
17,Cc1cc(-c2csc(NC(=O)c3nn(C)c(=O)c4ccccc34)n2)c(C)n1CCc1ccccc1,-0.14
18,COC(=O)c1cn(CC(=O)N2CCc3ccc(O)cc3C2)c2ccccc12,-0.16
19,O=C1CC(C(=O)Nc2ccc(-c3csc(N4CCOCC4)n3)cc2)c2ccc(F)cc2N1 (stereo not shown),-0.23
20,CCCCC(N)CN (stereo not shown),-0.28
21,CC(C)n1nc(C(=O)Nc2cccc(S(=O)(=O)NCc3ccco3)c2)c2ccccc2c1=O,-0.01
22,Cc1cc2oc(=O)cc(CN3CCC(NS(C)(=O)=O)CC3)c2cc1C,0.03
23,CCN(C(=O)CSc1nnc(NC2CCCCC2)s1)C1CCS(=O)(=O)C1 (stereo not shown),-0.11
24,COc1ccc(C2C(C(=O)c3ccc(F)cc3)=C(O)C(=O)N2CCCN2CCOCC2)cc1 (stereo not shown),-0.01

row,Compound,TSA(with NAD+) / Primary screening (TSA) / delta Tm (K)
1,CC(NC(=O)c1ccc2c(c1)CCC(=O)N2)c1ccc2c(c1)CC(=O)N2 (stereo not shown),-0.06
2,NC(=O)c1cnc(N2CCCC(c3nnc[nH]3)C2)c(Cl)c1 (stereo not shown),0.25
3,Cc1cc(C=C2C(=O)NC(=S)NC2=O)c(C)n1-c1ccc(F)cc1,-0.48
4,O=C(O)[C@@H](O)[C@H](O)C(=O)O,-0.06
5,O=C(Cc1cccc2ccccc12)NCCN/C(O)=C1\N=CC=CC1=O,-0.01
6,COc1ccc(-c2cc(NC(=O)Cc3n[nH]c(=O)c4ccccc34)ccc2OC(F)F)cc1,0.07
7,O=C(NCC(=O)N1CC=C(c2ccccc2)CC1)NCc1ccccc1,0.02
8,O=S1CCN(c2ncnc3ccsc23)CC1,-0.04
9,O=c1[nH]c(CNc2ccc3c(c2)OCO3)nc2ccsc12,-0.12
10,CN(CCCNC(=O)N[C@@H]1c2ccccc2C[C@@H]1O)S(C)(=O)=O,-0.05
11,Cn1c(SCc2nc3ccccc3s2)nc2ccsc2c1=O,-0.11
12,O=C(CCc1c[nH]c2ccccc12)Nc1cccc(S(=O)(=O)NCc2ccco2)c1,0.06
13,c1ccc(-n2ncc3c(N4CCCO4)ncnc32)cc1,-0.24
14,C=CCN(c1ccc(Cl)cc1)S(=O)(=O)c1cccc(C(=O)Nc2ccc(C(N)=O)cc2)c1,-0.03
15,COc1cc2nc(S)n(C)c(=O)c2cc1OC,0.09
16,CCc1nn2c(=O)cc(CNc3ccc(F)cc3Cl)nc2s1,0.16
17,Cc1cc(C)n2nc(C(=O)Nc3ccccc3Cc3ccccc3)nc2n1,-0.11
18,CCCCn1c(N)c(N(CC(C)C)C(=O)c2cccc(S(=O)(=O)N(C)c3ccc(C)cc3)c2)c(=O)[nH]c1=O,-0.05
19,CC(Nc1ncnc2c(F)cccc12)c1ccc(NC(=O)NC2CC2)cc1 (stereo not shown),-0.08
20,COc1cc(CN(C)C(=O)c2ccc3c(c2)NC(=O)CS3)ccc1OCc1ccccc1,-0.18
21,CCCCCCCC(=O)NCC(=O)O,-0.18
22,Cc1nc(COc2ccc(C(=O)Nc3ccc(S(=O)(=O)Nc4cccc(F)c4)cc3)cc2)cs1,-0.14
23,O=C(COC(=O)c1cccc(S(=O)(=O)N2CCc3ccccc32)c1)NC12CC3CC(CC(C3)C1)C2,0.08
24,O=C(Nc1ccc2c3c(cccc13)CC2)N1CCC(n2cncn2)CC1,-0.08

row,Compound,TSA(with NAD+) / Primary screening (TSA) / delta Tm (K)
1,CC(C(N)=O)N(C)Cc1ccccc1OC(F)(F)F (stereo not shown),-0.08
2,CC(C)C(=O)N1CCC(C(=O)N2CCc3cc(S(=O)(=O)N(C)C)ccc32)CC1,0.01
3,NC(=O)N1CCCC(C(=O)NCc2nncn2-c2ccccc2)C1 (stereo not shown),0.01
4,O=c1[nH]c2ccccc2c2nc(-c3cc(-c4ccccc4)n[nH]3)nn12,-0.01
5,CC(C)N(CC(N)=O)CC(=O)Nc1ccc2oc3ccccc3c2c1,-0.32
6,COC(C)(C)CN,-0.11
7,Cc1noc(C)c1CNc1ncnc2ccsc12,-0.14
8,NC(=O)c1ccc2[nH]c3c(c2c1)CCCC3,0.15
9,NC(=O)c1cc(NC(=O)CC(c2ccccc2)c2ccccc2)cc(C(N)=O)c1,-0.06
10,COC(=O)c1cc(Br)cc(C(=O)O)c1,-0.52
11,CN(Cc1ccco1)C(=O)CSc1nccn1Cc1ccccn1,0.05
12,COc1cccc(C(=O)C2=C(O)C(=O)N(CCCN3CCOCC3)C2c2ccc(C)o2)c1 (stereo not shown),-0.18
13,Cc1nc(-c2ccc(NC(=O)C3Cc4ccccc4O3)cc2)co1 (stereo not shown),-0.01
14,O=C(COc1ccc(Cl)cc1)OCCCC(=O)c1ccc(F)cc1,0.06
15,Cc1c(-c2ccccc2)sc(NC(=O)C23CC4CC(CC(O)(C4)C2)C3)c1C(=O)N1CCOCC1,-0.06
16,O=C(C1=C(O)C(=O)N(CCCN2CCOCC2)C1c1ccco1)c1cc2ccccc2o1 (stereo not shown),0.09
17,COC(=O)C1Cc2ccccc2N1 (stereo not shown),-0.13
18,NC(=O)c1ccc(C(=O)N2Cc3cc4c(cc3C3(CCCC3)C2)OCCO4)cc1,-0.05
19,CCOc1ccc(C2C(C(=O)c3sc(C)nc3C)=C(O)C(=O)N2CCCN2CCOCC2)cc1 (stereo not shown),-0.01
20,O=c1cc(NCC2COc3ccccc3O2)nc2ccccn12 (stereo not shown),-0.19
21,CC1CCN(c2nnc(SCC(=O)Nc3sc4c(c3C(N)=O)CCC4)n2C2CC2)CC1,-0.11
22,O=C(NCc1ccc(S(=O)(=O)N2CCOCC2)cc1)C12CC3CC(C1)CC(c1ccccc1)(C3)C2,0.03
23,NC(=O)c1ccc(CN2CCSCC2)cc1,0.07
24,N#CC(C(=O)c1ccc([N+](=O)[O-])s1)=C1Nc2ccccc2N1,-0.02

row,Compound,TSA(with NAD+) / Primary screening (TSA) / delta Tm (K)
1,NNC(=O)COc1ccccc1Cl,0.05
2,O=C(CSc1nnnn1-c1ccc(O)cc1)N1N=C(c2ccc3ccccc3c2)CC1c1ccccc1 (stereo not shown),0.66
3,O=c1[nH]c2ccccc2c(=O)n1CCSCCCO,-0.08
4,O=C(NC1CCSc2ccccc21)c1ccc2c(=O)n3c(nc2c1)CCC3 (stereo not shown),-0.06
5,COc1ccccc1NC(=O)C1CCN(C(=O)Nc2ccc(C)cc2OCc2ccccc2)CC1,0.06
6,COc1ccc(C(CNC=C2C(=O)NC(=S)NC2=O)N(C)C)cc1 (stereo not shown),-0.13
7,CCCCCC(C)NC(=O)c1cccc(S(=O)(=O)N(C)c2ccc(OC)cc2)c1 (stereo not shown),0.09
8,Cc1nc2ncnn2c(N2CCn3c(nnc3-c3ccccc3)C2)c1C,-0.02
9,O=C(O)C1CC(=O)N(c2ccc(S(=O)(=O)Nc3cccc([N+](=O)[O-])c3)cc2)C1 (stereo not shown),-0.01
10,CN1C(=O)c2oc3ccccc3c(=O)c2C1c1ccccc1F (stereo not shown),0.01
11,O=Cc1c[nH]nc1-c1ccc2c(c1)OCO2,-0.16
12,CCc1ccc(C(NCC(=O)Nc2oc(C)c3c(C)n[nH]c(=O)c23)C(C)C)cc1 (stereo not shown),-0.05
13,O=Cc1cn(CCC(=O)O)nc1-c1ccccc1,-0.05
14,CN(c1ccccc1)S(=O)(=O)c1cccc(C(=O)NCCCOCCc2ccccc2)c1,-0.15
15,COc1cc2c(cc1OC)CN(C(=O)c1cccc(S(=O)(=O)Nc3ccc(F)cc3)c1)CC2,-0.13
16,NC(=O)c1ccc(CNC2CCCCCC2)o1,-0.01
17,Oc1c(Br)cc2oc3c(c2c1/C=N/c1cccc2ccccc12)CCCC3,0.06
18,O=C1NC(=S)NC(=O)C1=CNc1ccc(Cl)c(Cl)c1,-0.11
19,C=C(CC)CN,0.02
20,Nc1ccnn1Cc1ccc(Cl)cc1Cl,-0.31
21,NCCCN,-0.14
22,COc1ccc(OC)c(NCCn2c(C)cn3c4c(=O)[nH]c(=O)n(C)c4nc23)c1,-0.03

# Entries above that have two or more sulfur atoms, in the order listed:
row,Compound,TSA(with NAD+) / Primary screening (TSA) / delta Tm (K)
13,O=C(COc1ccccc1C(=O)Nc1ccc(S(=O)(=O)Nc2nccs2)cc1)Nc1cccc(C(F)(F)F)c1,0.82
23,CCN(C(=O)CSc1nnc(NC2CCCCC2)s1)C1CCS(=O)(=O)C1 (stereo not shown),-0.11
8,O=S1CCN(c2ncnc3ccsc23)CC1,-0.04
11,Cn1c(SCc2nc3ccccc3s2)nc2ccsc2c1=O,-0.11
22,Cc1nc(COc2ccc(C(=O)Nc3ccc(S(=O)(=O)Nc4cccc(F)c4)cc3)cc2)cs1,-0.14
21,CC1CCN(c2nnc(SCC(=O)Nc3sc4c(c3C(N)=O)CCC4)n2C2CC2)CC1,-0.11
